# Values joined by “and” are separate entries in the source; they are usually repeats but may differ in a detail not shown here. Equal values may be shown once. Out of some 360,000 compounds screened, about 7,500 (2.1%) were called active. Inconclusive results, whose numbers are uncertain, are shown with a selection of clear calls. The call rests on the fitted dose curve; in most records, active means well fitted inhibition curve with a large enough effect; inconclusive means small, poorly fitted or top-dose-only effect, or effect the other way; inactive means flat fitted curve, though single readings scatter. Potencies of inconclusive entries are doubtful fits and often do not repeat.
# Experiment: Nrf2 qHTS screen for inhibitors; further: nearly all actives have a fitted effect of over 60% in size
# Details: A549 ARE-Fluc reporter, luciferase luminescence, 18-24 h; activity change, negative = inhibition: at 46 µM (top of the series)
# In short: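 Nrf2 activity is the BugLite luminescence, read 15 min after reagent at room temperature, following CellTiter-Fluor cytotoxicity readout (30 min, 37C). Compound titrations were applied for 18-24 h to 5000 A549 ARE_Fluc cells/well in 5% FBS OPTI-MEM.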
# On the % scale 0 is the no-effect control and ±100 the full control effect; potency means the concentration at half of the fitted maximal effect.
SMILES,Potency,"activity change, negative = inhibition"
O=C(/C(=C/c1ccc(Cl)cc1)c1nc2ccccc2[nH]1)c1cccs1,"inconclusive: 29.1 µM [falling, partial curve, poor fit]",–
CCc1nnc(NC(=O)CSc2nc3c(cc2C#N)CCC3)s1,"inconclusive: 25.9 µM [activator, partial curve, poor fit]",–
CCNC(=O)NC(=O)C(C)N1C(=O)NC(c2ccccc2)(c2ccccc2)C1=O (configuration not stated),"inconclusive: 6.51 µM [activator, partial curve, poor fit]",–
COc1ccc(NC(=S)NNc2ccc(S(=O)(=O)Nc3ccccc3C(=O)O)cc2[N+](=O)[O-])cc1,"inconclusive: 14.6 µM [falling, partial curve, poor fit]",–
O=C(NCc1ccccc1F)c1ccc(CSc2nc3cccnc3n2Cc2ccccc2)cc1,"inconclusive: 14.6 µM [falling, single point]",–
Cc1ccc(-c2nnc(Nc3ccccc3)c3ccccc23)cc1S(=O)(=O)NCC1CCCO1 (configuration not stated),"inconclusive: 11.6 µM [falling, partial curve, poor fit]",–
CCOc1ccc2nc(N3CCOCC3)nc(C)c2c1,"inconclusive: 4.11 µM [activator, full curve]",–
Cc1ccc(SCc2nc(-c3ccc(C(=O)NCCc4ccc(Cl)cc4)cc3)oc2C)cc1,"inconclusive: 25.9 µM [activator, single point]",–
COc1ccc(OC)c(NC(=O)[C@H](CSCc2ccccc2)N2Cc3ccccc3C2=O)c1,"inconclusive: 3.26 µM [activator, single point]",–
CCCN(Cc1cc2cc(C)ccc2[nH]c1=O)C(=O)c1cccc(OC)c1,"inconclusive: 14.6 µM [falling, partial curve, poor fit]",–
COc1cc(/C=N/O)ccc1OCc1ccc([N+](=O)[O-])cc1,"inconclusive: 1.46 µM [activator, full curve]",–
COC(=O)c1cc2sc(Cl)cc2n1CC(=O)Nc1cc(C)cc(C)c1,–,inactive: -10.1%
C/C(=N\NC(=O)c1cc(Cl)ccc1O)c1ccc(Br)s1,"inconclusive: 20.6 µM [activator, single point]",–
O=C(NC(=S)NCc1ccccc1)c1ccc2c(c1)OCO2,–,inactive: 28.3%
COc1ccc(OC)c(CNc2nc3ccc(C)cc3n3nnnc23)c1,"inconclusive: 9.2 µM [activator, partial curve, poor fit]",–
Cc1csc(SCC(=O)Nc2ccccc2)n1,"inconclusive: 29.1 µM [activator, single point]",–
COc1cc(NC(=O)CCc2c(C)nn(-c3ccc(N4CCCCC4)nn3)c2C)cc(OC)c1OC,"inconclusive: 3.66 µM [activator, partial curve]",–
Cc1nc2ccc(NC(=O)c3cc(S(=O)(=O)N4CCOCC4)ccc3C)cc2s1,"inconclusive: 16.4 µM [falling, partial curve]",–
O=C(CSc1nnc(COc2ccc(Cl)cc2)o1)N1c2ccccc2CCc2ccccc21,"inconclusive: 23.1 µM [falling, partial curve, poor fit]",–

# Look-ups from the entries so far.
# Potency, O=C(CSc1nnc(COc2ccc(Cl)cc2)o1)N1c2ccccc2CCc2ccccc21 is entered as inconclusive: 23.1 µM [falling, partial curve, poor fit]
# Potency, Cc1csc(SCC(=O)Nc2ccccc2)n1 is entered as inconclusive: 29.1 µM [activator, single point]

# (continued)

SMILES,Potency,"activity change, negative = inhibition"
COc1ccc(/C(N)=N/OC(=O)Cc2cccs2)cc1,"inconclusive: 18.4 µM [activator, single point]",–
Cn1c(CC(=O)NNC(=O)c2ccccc2F)nc2ccccc21,"inconclusive: 32.6 µM [falling, partial curve, poor fit]",–
C/C(N)=C(/C#N)C(=O)CSc1nnc(Nc2c(C)cccc2C)s1,"inconclusive: 32.6 µM [falling, single point] and inconclusive: 23.1 µM [falling, single point]",–
O=C(c1ccc(N2CCN(S(=O)(=O)c3ccccc3)CC2)c([N+](=O)[O-])c1)N1CCOCC1,–,inactive: -17.3%
O=C(O)C(=O)/C(=C\c1cccc(Cl)c1)c1ccc2ccccc2n1,"inconclusive: 23.1 µM [activator, partial curve]",–
CC1CCCCC12NC(=O)N(CC(=O)Nc1cccc(S(=O)(=O)N3CCCCC3)c1)C2=O (configuration not stated),"inconclusive: 25.9 µM [falling, partial curve, poor fit]",–
CCCc1ccc(S(=O)(=O)Nc2ccc(C)c(NS(C)(=O)=O)c2)cc1,"inconclusive: 2.06 µM [falling, full curve, poor fit]",–
COc1ccccc1NC(=O)N1CCCC(C(=O)Nc2cccc(C)c2C)C1 (configuration not stated),"inconclusive: 9.2 µM [falling, partial curve]",–
CCOC(=O)c1c(NC(=O)C2C3CCC(O3)C2C(=O)O)sc2c1CCC(CC)C2 (configuration not stated),"inconclusive: 29.1 µM [falling, single point]",–
O=C(Nc1ccc2c(c1)CCC2)c1cc(F)cc(F)c1,"inconclusive: 8.2 µM [activator, partial curve, poor fit]",–
CCC(Sc1nnc2c3ccccc3n(CC)c2n1)C(=O)Nc1nnc(C(C)C)s1 (configuration not stated),"inconclusive: 2.31 µM [falling, partial curve, poor fit]",–
CCC(C)Cn1c(C)nc2ccccc21 (configuration not stated),"inconclusive: 14.6 µM [falling, partial curve, poor fit]",–
COc1ccc(-c2csc(NC(=O)c3ccc(OCC(=O)N4CCOCC4)c(OC)c3)n2)cc1OC,"inconclusive: 16.4 µM [falling, single point]",–
Cc1ccc(Cn2c(SCC(=O)N(C)C3CCS(=O)(=O)C3)nc3ccccc3c2=O)cc1 (configuration not stated),"inconclusive: 1.3 µM [falling, full curve, poor fit]",–
O=C(Nc1ccc2c(c1)OCO2)C1CCCN1C(=O)OCc1ccccc1 (configuration not stated),–,inactive: -8%
CCOc1ccc(NC(=O)CC2C(=O)N(c3cccc(C)c3)C(=O)N2Cc2cccs2)cc1 (configuration not stated),"inconclusive: 6.51 µM [activator, single point]",–
CC1CCC2(CC1)NC(=O)N(CC(=O)Nc1cccc(S(=O)(=O)N3CCOCC3)c1)C2=O (configuration not stated),"inconclusive: 32.6 µM [falling, single point]",–
O=C(CCCCCNc1nc(=S)[nH]c2ccccc12)NCCc1ccc(Cl)cc1,"inconclusive: 29.1 µM [falling, single point]",–

# Source: PubChem BioAssay AID504444 (National Center for Advancing Translational Sciences (NCATS), 2011)
